From article PMC7819943, “Rice protein-binding microarrays: a tool to detect cis-acting elements near promoter regions in rice” come the findings set out here.

The chains behind the UniProt entries cited, without tags or fusion partners.
UniProt Q0JBA9, entry or part of it: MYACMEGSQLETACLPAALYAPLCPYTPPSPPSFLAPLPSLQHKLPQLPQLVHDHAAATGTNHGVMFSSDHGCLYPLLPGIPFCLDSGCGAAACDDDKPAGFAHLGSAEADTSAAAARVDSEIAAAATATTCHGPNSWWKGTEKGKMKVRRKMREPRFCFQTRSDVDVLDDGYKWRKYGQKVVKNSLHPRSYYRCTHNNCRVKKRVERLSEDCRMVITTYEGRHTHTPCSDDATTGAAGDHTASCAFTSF

This is one part of the list.

In the assay the target is OsWRKY34 (Oryza sativa, UniProt Q0JBA9 1-250). The experiment in a line: protein-binding microarray (RPBM); PBS, 2% BSA, 51.3 ng/ul salmon testes DNA, 50 uM zinc acetate, 200 nM TF, 25 C, 1 h; high values mean tight binding. Conditions: protein: recombinant; tags: N-terminal polyhistidine and DsRed monomer fusion (pET32a); label: CyDye5-dUTP incorporated in the synthesized complementary strand; 3' TTTTT single-stranded linker to array surface; dsDNA, one strand shown. An outline of the steps: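 Transcription factors were made in E. coli BL21-CodonPlus as N-terminal fusions to a polyhistidine tag and DsRed, then purified on Ni–NTA. After primer extension with Cy5-dUTP and blocking with 2% BSA, a custom Agilent array was exposed for 1 h at 25 °C to 200 nM protein in PBS, 2% BSA, salmon testes DNA and 50 µM zinc acetate. Washed arrays were scanned on an Axon 4000B, and the binding signal is per-feature fluorescence intensity in arbitrary units.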
Turning to “CGCTGATCTCCAGTTCTCTAACATTCTACCTCTTCCAGGTCGGAGTCACCTAGTGCAG”, the binding signal is 8440 fluorescence intensity (a.u.).

As for “GATAATATGTTTGTTTTGTATTGCAAATATTGTTATATTTCGGAGTCACCTAGTGCAG”, the binding signal was 8720 fluorescence intensity (a.u.). The result for “ATCCACTCCATCGCCGCCGATGCTCAGCTCGCTACTCGTCCGGAGTCACCTAGTGCAG” reads 8930 fluorescence intensity (a.u.). Then “TCTTACTCTGATGTTTGCTTGGTTTGCTTTGCGTTTTCTTCGGAGTCACCTAGTGCAG”, with 14600 fluorescence intensity (a.u.). Then “CTTTGTGATTAATTAATGTGCAACATAGTTTGGTTAATTCCGGAGTCACCTAGTGCAG”, with 8320 fluorescence intensity (a.u.). For “TAACCTATCGCAGTTGCTTTTGTTAATCTATGCACTTCACCGGAGTCACCTAGTGCAG”, the binding signal was 8330 fluorescence intensity (a.u.). Regarding “GACGCTGATCCCGCCTGTCCCACCTGTCCACCACGCCGCGCGGAGTCACCTAGTGCAG”, the binding signal was 8530 fluorescence intensity (a.u.). Then “ACTGTTCATTGTTGATGGCCTTTTCCAAAAACTAGAAAAGCGGAGTCACCTAGTGCAG”, with 8460 fluorescence intensity (a.u.); and “CCGTTCTATATTATACTCCCTCCGTTCTTAGATATTTGACCGGAGTCACCTAGTGCAG”, with 10300 fluorescence intensity (a.u.); and “ATGCAGTCGTGTGTTTCTATATCCAACGTTTGACTATCTTCGGAGTCACCTAGTGCAG”, with 11800 fluorescence intensity (a.u.).

On to “AACCTCCCCACCTCACGCGTCTGCCACTCCGGCGAGATATCGGAGTCACCTAGTGCAG”, for which the binding signal is 8560 fluorescence intensity (a.u.).

As for “ATTTGGTTCAGTGATTGTTTCTTGCCCTGTGATTGTCCCACGGAGTCACCTAGTGCAG”, the binding signal is 10100 fluorescence intensity (a.u.). Then “CTCCTCCTCTCTTCCCTTTCACTTGGCCGTCGTCTCCTCCCGGAGTCACCTAGTGCAG”, with 9320 fluorescence intensity (a.u.); and “CACCATAGATGTCCACGACATTTACTTCTCGTTTGCTCTACGGAGTCACCTAGTGCAG”, with 8900 ± 499 fluorescence intensity (a.u.); and “ATGGTAAAACATGTGATAAAAAGTCAACGGCGGTCAAACACGGAGTCACCTAGTGCAG”, with 13000 fluorescence intensity (a.u.). For the sequence “CTCTGTCTCTTGCTCTCACGCACTGTGTTCTTCGTTTTCTCGGAGTCACCTAGTGCAG”, the binding signal was 13500 fluorescence intensity (a.u.). The result for “GGTAATGAGAACGAACGCCACCGCGACCACACACAGAACCCGGAGTCACCTAGTGCAG” reads 8280 fluorescence intensity (a.u.); that for “GCTTTTCTCTACTACCTTTTCCACTGTTGCGAAGTCGGGTCGGAGTCACCTAGTGCAG”, 8310 fluorescence intensity (a.u.). Then “TTTGTCCCGTGGTTTTTCATTCCTTACACTGAGAAGGTTTCGGAGTCACCTAGTGCAG”, with 8790 fluorescence intensity (a.u.); and “CTCCATGACTAATCCTCTTCTCTCTTTTTGTTGTCTTTATCGGAGTCACCTAGTGCAG”, with 8180 fluorescence intensity (a.u.); and “CGTTCTTCACCGAGCTCTTCACGTGTTCTTCGTGTTCTTGCGGAGTCACCTAGTGCAG”, with 9550 fluorescence intensity (a.u.).

Regarding “CTCTCGAACACGTGGCTTTGTCTCATCTCTTAGATCTTCACGGAGTCACCTAGTGCAG”, the binding signal is 13900 fluorescence intensity (a.u.). The result for “TGGTGTGCTTCTTCACTGTCGCCATGTCGCAATGCGCGGCCGGAGTCACCTAGTGCAG” reads 9590 fluorescence intensity (a.u.); that for “GTTGGGGAGCGGGGTGTGTGTGCCAGGCGCTCGGGCGGGGCGGAGTCACCTAGTGCAG”, 19500 fluorescence intensity (a.u.); that for “CGCAAGACCACGACTCAACTAGTTTATTCTTCCAATCTTTCGGAGTCACCTAGTGCAG”, 8610 fluorescence intensity (a.u.). Then “GGTTATGTCTCTGTTGCTGTTTAATTTGCTGATGTCTCTGCGGAGTCACCTAGTGCAG”, with 12800 fluorescence intensity (a.u.); and “CCATCAGCATATAGTTCTATTCTATACACTTTCTTCATCCCGGAGTCACCTAGTGCAG”, with 9300 fluorescence intensity (a.u.); and “AGTTTCGTTCTCCTTCGCTCGCATTGCTGGTTGGGGTTCGCGGAGTCACCTAGTGCAG”, with 10100 fluorescence intensity (a.u.). Then “ACCGAAATTTTGTTCTGTTGTTACTATTGGTAGTTAGTTTCGGAGTCACCTAGTGCAG”, with 12000 fluorescence intensity (a.u.); and “GACTTCCGAGCCACCGTCGTCCCTCGCTAACTTCGCATCACGGAGTCACCTAGTGCAG”, with 10500 fluorescence intensity (a.u.).

Regarding “TCGGTCTCTCGCCCCGCGCCCTCACGTTGTCACGTACAAACGGAGTCACCTAGTGCAG”, the binding signal was 10500 fluorescence intensity (a.u.). Then “TATTTTTTTCCGCCACGCGCTCGAGACTTTGCTTCTTTCACGGAGTCACCTAGTGCAG”, with 14700 fluorescence intensity (a.u.); and “TGTTAGGTTGGTTTTTTATTTTTTTTATTGTTTTTTTTACCGGAGTCACCTAGTGCAG”, with 11900 fluorescence intensity (a.u.); and “ACGGTGTTGCTGCTTGTATTTGTGTCTGTGTGTGTGTTTTCGGAGTCACCTAGTGCAG”, with 10100 fluorescence intensity (a.u.). Then “ACTACCACCACCACCACCACCACCTGCTTCCTCCGCGGCTCGGAGTCACCTAGTGCAG”, with 9640 fluorescence intensity (a.u.).

Consider “GACATGTGTTCGTTGTGTTTAAACTAGGAATCGGCGATACCGGAGTCACCTAGTGCAG”, for which the binding signal was 8400 fluorescence intensity (a.u.). “TCGCACATCGCTTCACGTAATCTACCGTAAATGTACTTTCCGGAGTCACCTAGTGCAG”: the binding signal was 8200 fluorescence intensity (a.u.). As for “CATGCCGGGCGGTCAATTTGACCATCTATATACCTTCGGTCGGAGTCACCTAGTGCAG”, the binding signal is 10500 fluorescence intensity (a.u.).

With “AGGGCATGTATCTTCAAAAAAGGTTTTCAAATTTGATTCTCGGAGTCACCTAGTGCAG”, the binding signal was 9240 fluorescence intensity (a.u.).

Take “ATCCCGTTTTAGGCACAGCCTAAGTCTCTGTCAACATCCTCGGAGTCACCTAGTGCAG”: the binding signal was 8100 fluorescence intensity (a.u.). The result for “GCTTGACTTCTTCATTCCTCAATCTCCTAACAACCATCACCGGAGTCACCTAGTGCAG” reads 9230 fluorescence intensity (a.u.). The result for “AACGGGGCTTTTAACTATTTATCACTTGTAGATTTGGCAACGGAGTCACCTAGTGCAG” reads 8640 fluorescence intensity (a.u.).
